According to PubChem BioAssay AID504775 (Broad Institute, 2011):
In all, about 320,000 compounds went through this assay and about 310 (0.097%) were called active. The shares of active, inactive and inconclusive entries below differ from those in the screen.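 Rule for the calls: active = mean replicate activation of at least 60% and every replicate at or above 60%; inconclusive = mean or all-replicate condition met, but not both; inactive = mean below 60% and not all replicates reaching 60%.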

Assay: enhancers of HDL lipid transfer via mSR-BI – ldlA[mSR-BI] CHO cells, DiI fluorescence, primary screen (AID 504775);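 note: 0% = median plate neutral-control signal and 100% = twice that signal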
Settings: DiI-HDL uptake fluorescence, 3 h, at 12.5 µM, stronger effect = higher value, 100 = double the neutral-control signal
Outline: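 System: CHO ldlA[mSR-BI] cells / Medium: HEPES-buffered (25 mM, pH 7.4) F12 plus 0.5% BSA / Probe or stimulus: labelled HDL, 10 µg/mL / Doses: single compound concentration, delivered by pin transfer / Schedule: 3 h, 37 °C / Measured by: DiI fluorescence, bottom read / Measure: cell-associated DiI fluorescence as measure of HDL uptake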

SMILES | activation
CC(C)OC(=O)Nc1ccc2c(c1)N(C(=O)CCN1CCOCC1)c1ccccc1CC2 | active: 62.7%
Cc1noc(C)c1C(=O)Nc1cccc(S(=O)(=O)N2CCCCC2)c1 | inactive: 8.04%
O=S(=O)(NCC(c1ccc2c(c1)OCO2)N1CCOCC1)c1ccccc1 (centres undefined) | active: 347%
O=C(O)c1ccc(Nc2nc3ccc(Cl)cc3[nH]2)cc1 | inactive: 12.9%
COc1ccc2c(c1)c(=Cc1ccc(N(C)C)cc1)c1cc(-c3ccccc3)[n+](C)n12 | inconclusive: 63.4%
N/C(=N\c1nc2ccccc2o1)NC(=O)/C=C/c1ccccc1 | inconclusive: 191%
O=C(c1ccc(Cl)c([N+](=O)[O-])c1)N(Cc1ccc(F)cc1)C1CCS(=O)(=O)C1 (centres undefined) | inconclusive: 175%
COc1ccc(/C=N/n2c(C)nc3c([nH]c4ccccc43)c2=O)cc1CN1CCCC(C)(C)C1 | inconclusive: 130%
Cc1oc2nc(SCC(=O)NC3CCCCC3)nc(N)c2c1C | active: 389%
COCCn1c(SCC(=O)NCC(c2ccccc2)N(C)C)nc2sc3c(c2c1=O)CCC3 (centres undefined) | inconclusive: 149%
CC(C)(C)OC(=O)N1CCC[C@H]1C(=O)NCC1CCC(C(=O)O)CC1 (some centres undefined) | inconclusive: 63.6%
CN(C)C=Nc1nonc1-c1ccccc1 | inconclusive: 63.3%
Nc1ncnc2c1ncn2[C@@H]1O[C@H](CNS(=O)(=O)c2cc(S(=O)(=O)c3ccccc3)cs2)[C@@H](O)[C@H]1O | active: 130%
O=C(Nc1ccc(Cl)cc1)P(=O)(O)c1ccccc1 | inconclusive: 154%
O=C(Cn1c(NCCO)nc2ccccc21)c1ccco1 | active: 61.4%
CC(=O)c1cccc(NC(=O)CCNC(=O)c2ccccc2Cl)c1 | inconclusive: 80.3%
COc1ccc(-c2[nH]ncc2CN(CCO)CC23CC4CC(CC(C4)C2)C3)c(OC)c1 | inconclusive: 259%
Cc1cc(N2CCOCC2)nc2ccc(NC(=O)CCC(=O)N3CCCCC3)cc12 | inactive: 14.1%
Cc1cc(-c2n[nH]c(=S)n2Cc2ccco2)n(C)n1 | active: 61%
C=CCn1c(SCC(=O)N(CC)C2CCS(=O)(=O)C2)nnc1-c1ccccc1 (centres undefined) | active: 73.4%
C=CCC(=O)NC1CC(C)(C)Cc2c1cnn2-c1ccc(C)cc1 (centres undefined) | inconclusive: 174%
COc1ccc(CN2C(=O)c3cccnc3C2Nc2ccc(OC)c(Cl)c2)cc1 (centres undefined) | inactive: 9.15%
CCN=C1S/C(=C\c2ccc(-c3cccc(C(=O)O)c3)o2)C(=O)N1CC | inconclusive: 66.5%

SMILES | activation
CCCCn1c(SCC(=O)Nc2cc(C)on2)nnc1-c1ccco1 | inconclusive: 157%
S=C(Nc1ccccc1)Nc1nc2ccccc2n1CCOc1ccc(Cl)cc1 | inactive: -25.3%
O=S1(=O)CCO[C@H]2Cc3ccccc3[C@H]2N1Cc1ccccc1 | inconclusive: 60.3%
COc1ccccc1N1CCN(C(=O)Cc2ccc(Cl)cc2)CC1 | inconclusive: 119%
C/C(=N\NC(=O)CCc1ccccc1)C1C(=O)c2ccccc2C1=O | inconclusive: 116%
CCCCC(=NCCc1c(C)[nH]c2ccc(OC)cc12)C1=C(O)CC(c2ccccc2)CC1=O (centres undefined) | inconclusive: 168%
COc1cc(C(=O)n2cnc3ccccc32)c([N+](=O)[O-])cc1OC | inconclusive: 127%
COc1ccc(CCN2CC(C(=O)N3CCC(O)(c4ccccc4)CC3)CCC2=O)cc1 (centres undefined) | inactive: 3.22%
CC(=NCCCn1ccnc1)C1=C(O)c2ccccc2C1=O | active: 60.6%
O=C(NCCC1=CCCCC1)c1cc(-c2ccncc2)nc2ccccc12 | inactive: 10.2%
O=C1CN(C(=O)c2ccccc2)C(c2ccccc2)c2cc(F)ccc2N1 (centres undefined) | inconclusive: 75%
O=C(Nc1ccc(N2CCOCC2)c(S(=O)(=O)Nc2ccccc2Cl)c1)c1ccc(=O)[nH]n1 | inconclusive: 125%
CC[C@]12c3[nH]c4cc(CCC(=O)N(C)C)ccc4c3CCN1C(=O)[C@@H](CC(=O)NCCN1CCOCC1)C[C@@H]2C(=O)N1CCN(C(=O)c2ccco2)CC1 | inconclusive: 61.2%
CCn1c(=O)c(=O)[nH]c2cc(C(=O)N3CCN(Cc4ccc5c(c4)OCO5)CC3)ccc21 | inactive: 4.41%
O=C(C1CCC(C(=O)N2CCc3ccccc32)CC1)N1CCc2ccccc21 (centres undefined) | inconclusive: 109%
COc1ccc(Nc2cc(Cl)nc(N)n2)cc1 | active: 66.7%
O=C(CCNS(=O)(=O)c1c(Cl)cccc1Cl)OCC(=O)c1ccccc1 | inactive: 15%
Cc1ccc(-c2csc(NC(=O)CN3CCC(C(N)=O)CC3)n2)cc1 | inconclusive: 206%
CCOc1ccc(-n2c(C)c(C(=O)OC)c3cc(O)ccc32)cc1 | inconclusive: 111%
COc1ccccc1C(=O)COC(=O)CNC(=O)c1ccc(Br)o1 | inconclusive: 298%
COc1ccc(-n2nc3c(c2NC(=O)c2ccc(S(=O)(=O)N4CCOCC4)cc2)CS(=O)C3)cc1 (centres undefined) | active: 68.3%
CC(NC(=O)CN1C(=O)NC2(CCCCCCC2)C1=O)c1ccccc1 (centres undefined) | inactive: 27.8%
CC(C)C(c1nnnn1CCc1ccccc1)N1CCN(C(=O)c2ccco2)CC1 (centres undefined) | active: 424%

3 entries from above, as labelled records:
COc1ccc(Nc2cc(Cl)nc(N)n2)cc1
  activation: active: 66.7%
COc1ccc(-n2nc3c(c2NC(=O)c2ccc(S(=O)(=O)N4CCOCC4)cc2)CS(=O)C3)cc1 (centres undefined)
  activation: active: 68.3%
CC(C)C(c1nnnn1CCc1ccccc1)N1CCN(C(=O)c2ccco2)CC1 (centres undefined)
  activation: active: 424%

(next part)

SMILES | activation
CCOC(=O)c1cnc(-n2nc(C)cc2C)nc1NCCO | inconclusive: 195%
Nc1c([N+](=O)[O-])c(=O)sc2ccccc12 | inconclusive: 158%
Cc1c(Br)c([N+](=O)[O-])nn1CC(=O)NCc1cccnc1 | inconclusive: 68.8%
O=C(NN=Cc1c(O)ccc2ccccc12)c1ccc2c(c1)OCO2 | inactive: -124%
Cc1ccc(-c2nnn(CC(=O)N3CCCc4ccccc43)n2)cc1 | inactive: -1.9%
C/C(CC(=O)Nc1ccc(C)c(Cl)c1)=N\NC(=O)c1cccc(O)c1 | inconclusive: 105%
CCOC(=O)c1ccc(NC(=O)N2CCCCC2)cc1 | inconclusive: 122%
NS(=O)(=O)c1cccc(NC(=O)c2cccc(S(=O)(=O)N3CCCCCC3)c2)c1 | inconclusive: 207%
Cc1nnc(SCCC(C)C)[nH]c1=O | active: 95.8%
CC1=NN(c2ccc(S(=O)(=O)O)cc2Cl)C(=O)C1 | inconclusive: 213%
O=C(O)CCC1(CCC(=O)O)CCCC(CCC(=O)O)(CCC(=O)O)C1=O | active: 60.8%
O=C(O)c1ccc2oc(SCC(=O)N3CCCCC3)nc2c1 | inactive: 6.03%
CCC1=Nc2cc(C(=O)NCCCOC)ccc2Sc2ccccc21 | inactive: -28.2%
Cc1cccn2c(/C=N/OCc3cccc(F)c3)c(-c3ccc(Cl)cc3)nc12 | inconclusive: 137%
O=C(NCc1ccccc1Br)c1ccncc1 | inconclusive: 161%
Cc1cc2cc(C)c(NCCNC(=O)c3cccc(F)c3)nc2cc1C | inactive: -28.7%
COc1ccccc1-c1cc(C(F)(F)F)nc(N2CCN(c3ccccc3)CC2)n1 | inconclusive: 105%
COc1ccc(-n2c(=O)cc(N3CCCCCC3)[nH]c2=O)cc1 | inconclusive: 64%
Cc1cc(NC(=O)COC(=O)c2ccccc2NCCO)no1 | inconclusive: 131%
CS(=O)(=O)N(CC(=O)Nc1cccc(F)c1)c1cccc([N+](=O)[O-])c1 | inconclusive: 381%
O=C(c1ccccc1)N1CCN(CC(O)COc2ccc(Br)cc2)CC1 (centres undefined) | inconclusive: 376%
Cc1cc(C(=O)COC(=O)CC(NC(N)=O)c2ccc(Cl)cc2)c(C)n1C (centres undefined) | inconclusive: 108%
CN1CCN(CCCCOc2ccc(F)cc2)CC1 | inconclusive: 303%

SMILES | activation
Cc1ccc(CSCCNC(=O)c2ccc(N(C)S(=O)(=O)c3ccccc3)cc2)cc1 | inactive: -18.5%
CN(/N=C/c1ccc(C(C)(C)C)cc1)C1=NCCN1 | inconclusive: 280%
COc1ccc(N2CCN(C(=O)Cc3nn(C)c(=O)c4ccccc34)CC2)cc1 | inactive: -15.9%
COC(=O)Cn1c2ccc(Cl)cc2c2nc(C)sc21 | inconclusive: 142%
CCOC(=O)c1c(NC(=O)CSc2ccccc2C(=O)O)sc(C)c1C | inconclusive: 62.4%
Cc1ccc2nc(-c3cccc(Br)c3)cc(C(=O)NC3=NCCS3)c2c1 | inactive: -42.8%
COc1ccc(-c2cc(N)n(S(=O)(=O)c3c(F)c(F)c(F)c(F)c3F)n2)cc1OC | inactive: -13%
O=C(Nc1nnc(C2=COCCO2)o1)C1CCCCC1 | inactive: 23.7%
CCN(CC)CCCC(C)Nc1nccc2c(Cl)cccc12 (centres undefined) | inconclusive: 104%
CN(Cc1ccccc1)S(=O)(=O)c1ccc(Cl)c(C(=O)NCCCN2CCOCC2)c1 | inactive: -5.94%
CC1CCN(Cc2cc(=O)oc3cc(O)c(Cl)cc23)CC1 | inconclusive: 61.6%
CCOC(=O)C(=CNc1ccc(NC2=NCC(C)(C)S2)cc1)C(=O)OCC | inactive: -10.5%
Cc1cccc(-c2noc(CCCC(=O)Nc3ccc(C(N)=O)cc3)n2)c1 | inconclusive: 60.9%
O=C(CSc1nc2ccccc2c(=O)n1Cc1ccccc1)NCc1ccco1 | inactive: -1.54%
Cc1c(Cl)cnn1CC(=O)NC1C(=O)N2C(C(=O)O)=C(CSc3nnnn3C)CSC12 (centres undefined) | inconclusive: 175%
Cc1ccc(S(=O)(=O)[N-]c2nc3ccccc3nc2-n2cc[n+](CCC(C)C)c2)cc1 | inactive: 14.3%
Cc1cc(C)c(C(=O)COC(=O)[C@H](C)Nc2ccc(C(F)(F)F)cc2[N+](=O)[O-])c(C)c1 | inconclusive: 178%
CCC(=O)Nc1nc2cc(OC)ccc2s1 | inconclusive: 327%
Cc1nc(N)[nH]c(=O)c1Oc1cccc(C(F)(F)F)c1 | inconclusive: 160%
O=c1[nH]cnc(O)c1Nc1cccc(Cl)c1 | inconclusive: 82.8%
